Measurements reported in PubChem BioAssay AID1159578 (Peter MacCallum Cancer Centre, 2015)

- Aim: 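Genome-wide hunt for genes controlling movement of lymphatic endothelial cells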 (primary screen)
- System: human lymphatic endothelial cells
- Knock-down reagent: siRNA pool against human genes, 40 nM
- Duration: 48 h after transfection
- Detection: 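Cells stained with dye and imaged after a scratch; covered wound area and nuclei counted, duplicates averaged, migration set against mock wells and turned into a robust z-score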
- Scale: migration robust z-score: higher = faster migration into the scratch; nuclei per well: higher = more cells in the well
- Call rule: 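Migration changed when robust z exceeds 2 or falls below -2 and mean nuclei number is at least 3300; otherwise not called changed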
- Calls: active = migration changed; inactive = no migration change, or too few cells
In all, the deposit lists about 18,000 reagents; shown is a part drawn at random. Over the whole deposit, about 1,030 (5.7%) got an active call. 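Inactive calls also include pools with fewer than 3300 nuclei, whose migration was not assessed.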 Raw values are not corrected between plates. Not all columns of the deposit are shown.

For TMEM92, the values are migration robust z-score 0.2; migration class with cell-count check migration z between -2 and 2; enough cells; nuclei per well, duplicate mean 6341; inactive. With knock-down of SYT1, the screen gave migration robust z-score 0.62; migration class with cell-count check migration z between -2 and 2; enough cells; nuclei per well, duplicate mean 4410; inactive. Depletion of LYPD2 gave: migration robust z-score -0.43; migration class with cell-count check migration z between -2 and 2; enough cells; nuclei per well, duplicate mean 5348; inactive. PDHA1 scored migration robust z-score 0.1; migration class with cell-count check migration z between -2 and 2; enough cells; nuclei per well, duplicate mean 6008; inactive. Against NAA60 the deposit lists migration robust z-score -1.09; migration class with cell-count check migration z between -2 and 2; enough cells; nuclei per well, duplicate mean 4218; inactive. With knock-down of GRPEL1 the results were migration robust z-score -0.42; migration class with cell-count check migration z between -2 and 2; enough cells; nuclei per well, duplicate mean 5670; inactive.

After knock-down of NCAM2, the record shows migration robust z-score -1; migration class with cell-count check migration z between -2 and 2; enough cells; nuclei per well, duplicate mean 6098; inactive. Silencing of PIBF1 resulted in: migration robust z-score -0.74; migration class with cell-count check migration z between -2 and 2; enough cells; nuclei per well, duplicate mean 6141; inactive. With knock-down of DPM1 the results were migration robust z-score -0.5; migration class with cell-count check migration z between -2 and 2; enough cells; nuclei per well, duplicate mean 5654; inactive. HGD showed migration robust z-score 0.16; migration class with cell-count check migration z between -2 and 2; enough cells; nuclei per well, duplicate mean 4802; inactive. ART1 scored migration robust z-score -1.3; migration class with cell-count check migration z between -2 and 2; enough cells; nuclei per well, duplicate mean 5264; inactive. Silencing of NCOA4 resulted in: migration robust z-score -1.66; migration class with cell-count check migration z between -2 and 2; enough cells; nuclei per well, duplicate mean 3723; inactive.

Depletion of CHI3L1 resulted in: migration robust z-score -1.06; migration class with cell-count check migration z between -2 and 2; enough cells; nuclei per well, duplicate mean 7444; inactive. After knock-down of SCRT2 the results were migration robust z-score -0.11; migration class with cell-count check under 3300 nuclei; migration not judged; nuclei per well, duplicate mean 2767; inactive. OR5AU1 scored migration robust z-score 0.78; migration class with cell-count check migration z between -2 and 2; enough cells; nuclei per well, duplicate mean 5510; inactive. With knock-down of RBMX the results were migration robust z-score -1.46; migration class with cell-count check migration z between -2 and 2; enough cells; nuclei per well, duplicate mean 5901; inactive. For STRAP, the values are migration robust z-score 0.08; migration class with cell-count check migration z between -2 and 2; enough cells; nuclei per well, duplicate mean 5228; inactive. After knock-down of AMELX the results were migration robust z-score -0.71; migration class with cell-count check migration z between -2 and 2; enough cells; nuclei per well, duplicate mean 5926; inactive.

With knock-down of FGFR1 the results were migration robust z-score -3.4; migration class with cell-count check under 3300 nuclei; migration not judged; nuclei per well, duplicate mean 2488; inactive. JOSD1 gave migration robust z-score -0.52; migration class with cell-count check migration z between -2 and 2; enough cells; nuclei per well, duplicate mean 5944; inactive. SEMA5A scored migration robust z-score 1.02; migration class with cell-count check migration z between -2 and 2; enough cells; nuclei per well, duplicate mean 5450; inactive.
